This is one part of the list.
Experiments:
Experiment in all cases: log2 fold change, soluble protein after heating vs DMSO (PISA); higher = thermal stabilisation; K562 lysate, 10 uM; active = over 0.2 and 3.5 SD of the protein, either way, in both replicates (recomputed)
erlotinib = compound: C#Cc1cccc(Nc2ncnc3cc(OCCOC)c(OCCOC)cc23)c1 [erlotinib]
In short: (§1)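 Dounce homogenisation of K562 pellets in PBS pH 7.4 with 1 mM MgCl2 produced a crude extract, used at 1 mg/mL protein. Exposure to 10 μM compound lasted 30 min, and aliquots were then heated for 3 min across 48°C-58°C, pooled and brought to 0.5% NP-40 at 4°C. The supernatant after 21,000xg for 90 min was quantified by TMTpro 16plex LC-MS/MS with channel sums equalised. Duplicate values are given as log-two fold change in thermal stability relative to solvent controls.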

Chains of the proteins cited; added tags and fusions are not shown. Lines headed by an entry give the natural chain unless they say otherwise; changes in a name come on top.
UniProt O75157: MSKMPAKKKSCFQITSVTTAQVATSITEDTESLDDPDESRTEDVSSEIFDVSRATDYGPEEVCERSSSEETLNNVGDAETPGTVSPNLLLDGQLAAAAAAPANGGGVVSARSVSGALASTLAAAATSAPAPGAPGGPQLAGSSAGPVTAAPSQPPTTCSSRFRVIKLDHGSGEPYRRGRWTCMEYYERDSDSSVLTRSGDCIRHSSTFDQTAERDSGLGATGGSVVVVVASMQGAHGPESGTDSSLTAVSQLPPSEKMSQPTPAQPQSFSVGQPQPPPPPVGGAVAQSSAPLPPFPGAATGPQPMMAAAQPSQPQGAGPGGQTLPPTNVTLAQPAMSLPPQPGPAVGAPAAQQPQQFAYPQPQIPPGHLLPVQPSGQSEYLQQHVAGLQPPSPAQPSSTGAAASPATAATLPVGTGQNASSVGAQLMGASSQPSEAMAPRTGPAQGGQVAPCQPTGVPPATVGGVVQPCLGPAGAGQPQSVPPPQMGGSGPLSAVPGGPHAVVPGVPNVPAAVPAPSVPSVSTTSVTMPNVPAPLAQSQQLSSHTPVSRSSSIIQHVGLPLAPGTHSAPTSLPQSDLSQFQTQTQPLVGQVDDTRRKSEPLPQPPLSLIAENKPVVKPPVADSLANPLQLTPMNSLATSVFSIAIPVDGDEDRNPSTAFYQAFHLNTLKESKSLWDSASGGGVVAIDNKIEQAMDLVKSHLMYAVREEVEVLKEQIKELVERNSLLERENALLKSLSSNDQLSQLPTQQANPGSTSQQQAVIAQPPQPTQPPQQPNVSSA
UniProt Q8WVT3: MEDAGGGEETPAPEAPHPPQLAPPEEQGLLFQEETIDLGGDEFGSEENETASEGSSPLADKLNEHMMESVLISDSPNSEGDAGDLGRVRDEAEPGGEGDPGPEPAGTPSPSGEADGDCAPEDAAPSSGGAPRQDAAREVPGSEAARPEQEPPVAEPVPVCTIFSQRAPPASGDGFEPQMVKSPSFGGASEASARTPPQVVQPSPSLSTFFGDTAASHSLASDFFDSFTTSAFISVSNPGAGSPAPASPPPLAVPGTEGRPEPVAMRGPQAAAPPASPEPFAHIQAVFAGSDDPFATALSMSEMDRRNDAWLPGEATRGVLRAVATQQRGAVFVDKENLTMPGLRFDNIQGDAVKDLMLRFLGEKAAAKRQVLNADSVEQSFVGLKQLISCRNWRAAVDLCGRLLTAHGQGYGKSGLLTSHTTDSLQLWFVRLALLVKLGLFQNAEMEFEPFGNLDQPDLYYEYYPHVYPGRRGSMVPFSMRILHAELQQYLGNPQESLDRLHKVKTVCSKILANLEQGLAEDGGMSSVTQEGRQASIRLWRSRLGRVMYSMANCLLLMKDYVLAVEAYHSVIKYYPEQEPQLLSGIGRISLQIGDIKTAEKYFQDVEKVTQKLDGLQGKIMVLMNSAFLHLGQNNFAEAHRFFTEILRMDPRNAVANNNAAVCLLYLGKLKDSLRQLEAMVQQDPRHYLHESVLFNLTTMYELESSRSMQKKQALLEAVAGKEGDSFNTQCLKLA
UniProt Q9NX07: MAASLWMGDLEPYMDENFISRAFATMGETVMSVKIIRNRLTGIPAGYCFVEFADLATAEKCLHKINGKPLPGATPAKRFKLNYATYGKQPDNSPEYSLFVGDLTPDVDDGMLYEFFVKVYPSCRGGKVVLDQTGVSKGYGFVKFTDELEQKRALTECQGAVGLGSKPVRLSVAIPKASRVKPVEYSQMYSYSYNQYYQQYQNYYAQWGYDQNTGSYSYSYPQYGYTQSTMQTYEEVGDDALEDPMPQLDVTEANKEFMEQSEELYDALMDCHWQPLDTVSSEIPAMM
UniProt Q86SZ2: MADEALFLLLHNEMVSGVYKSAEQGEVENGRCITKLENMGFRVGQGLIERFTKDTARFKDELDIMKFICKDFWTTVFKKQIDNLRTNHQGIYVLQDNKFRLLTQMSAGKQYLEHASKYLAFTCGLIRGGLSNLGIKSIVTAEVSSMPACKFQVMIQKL
UniProt A5PLN9: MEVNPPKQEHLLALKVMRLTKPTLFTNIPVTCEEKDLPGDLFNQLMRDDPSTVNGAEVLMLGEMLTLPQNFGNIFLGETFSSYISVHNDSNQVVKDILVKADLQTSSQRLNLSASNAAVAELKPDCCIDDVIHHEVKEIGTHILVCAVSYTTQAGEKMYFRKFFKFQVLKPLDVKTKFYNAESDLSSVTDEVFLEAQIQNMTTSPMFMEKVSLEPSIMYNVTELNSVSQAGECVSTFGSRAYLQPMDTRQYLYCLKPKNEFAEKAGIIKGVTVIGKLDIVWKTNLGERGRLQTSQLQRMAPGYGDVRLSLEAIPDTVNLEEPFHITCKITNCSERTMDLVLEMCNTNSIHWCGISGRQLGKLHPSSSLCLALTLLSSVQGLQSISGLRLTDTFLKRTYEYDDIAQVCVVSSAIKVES
UniProt Q9BRZ2: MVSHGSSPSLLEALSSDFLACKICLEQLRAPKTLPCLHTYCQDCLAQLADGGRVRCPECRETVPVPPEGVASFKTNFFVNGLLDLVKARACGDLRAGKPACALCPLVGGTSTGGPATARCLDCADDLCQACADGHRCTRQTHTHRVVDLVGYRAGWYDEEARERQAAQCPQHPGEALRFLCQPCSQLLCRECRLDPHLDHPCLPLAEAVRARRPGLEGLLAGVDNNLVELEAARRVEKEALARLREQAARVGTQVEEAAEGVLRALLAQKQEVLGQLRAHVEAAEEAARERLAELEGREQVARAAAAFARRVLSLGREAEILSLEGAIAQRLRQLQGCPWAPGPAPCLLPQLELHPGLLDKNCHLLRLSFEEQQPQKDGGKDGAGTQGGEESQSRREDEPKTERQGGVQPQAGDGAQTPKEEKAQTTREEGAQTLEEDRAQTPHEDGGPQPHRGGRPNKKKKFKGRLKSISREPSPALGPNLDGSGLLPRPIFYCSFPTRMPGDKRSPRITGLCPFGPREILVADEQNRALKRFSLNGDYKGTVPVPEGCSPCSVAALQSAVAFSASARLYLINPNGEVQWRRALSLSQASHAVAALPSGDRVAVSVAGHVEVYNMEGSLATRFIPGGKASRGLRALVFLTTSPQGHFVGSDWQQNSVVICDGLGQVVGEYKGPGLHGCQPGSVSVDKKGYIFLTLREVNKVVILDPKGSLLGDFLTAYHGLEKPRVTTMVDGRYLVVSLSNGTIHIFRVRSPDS
UniProt P43897: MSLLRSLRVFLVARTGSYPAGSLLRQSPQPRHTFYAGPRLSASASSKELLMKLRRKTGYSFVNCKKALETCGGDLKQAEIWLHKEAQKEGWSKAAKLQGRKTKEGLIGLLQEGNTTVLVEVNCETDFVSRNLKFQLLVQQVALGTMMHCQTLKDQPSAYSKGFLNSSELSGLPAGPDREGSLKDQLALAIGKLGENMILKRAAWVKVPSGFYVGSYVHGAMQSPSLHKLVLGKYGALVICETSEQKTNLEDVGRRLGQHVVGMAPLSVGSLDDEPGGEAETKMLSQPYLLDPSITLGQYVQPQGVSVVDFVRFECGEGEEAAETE
UniProt Q8N5M4: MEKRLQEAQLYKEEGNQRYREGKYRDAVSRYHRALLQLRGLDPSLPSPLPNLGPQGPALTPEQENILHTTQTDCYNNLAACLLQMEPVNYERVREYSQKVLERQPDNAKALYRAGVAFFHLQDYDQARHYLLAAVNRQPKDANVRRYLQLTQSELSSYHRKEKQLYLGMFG
UniProt O75648: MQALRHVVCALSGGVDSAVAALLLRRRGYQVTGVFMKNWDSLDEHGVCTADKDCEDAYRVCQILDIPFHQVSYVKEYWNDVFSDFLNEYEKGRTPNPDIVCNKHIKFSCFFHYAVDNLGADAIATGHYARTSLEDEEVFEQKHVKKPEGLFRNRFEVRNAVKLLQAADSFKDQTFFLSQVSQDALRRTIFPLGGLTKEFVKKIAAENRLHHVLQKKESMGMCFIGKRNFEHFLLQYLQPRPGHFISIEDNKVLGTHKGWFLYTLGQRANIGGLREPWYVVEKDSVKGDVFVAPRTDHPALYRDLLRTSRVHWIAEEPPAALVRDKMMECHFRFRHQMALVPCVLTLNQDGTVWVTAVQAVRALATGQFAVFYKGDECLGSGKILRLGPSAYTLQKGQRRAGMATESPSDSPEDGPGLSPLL
UniProt Q15629: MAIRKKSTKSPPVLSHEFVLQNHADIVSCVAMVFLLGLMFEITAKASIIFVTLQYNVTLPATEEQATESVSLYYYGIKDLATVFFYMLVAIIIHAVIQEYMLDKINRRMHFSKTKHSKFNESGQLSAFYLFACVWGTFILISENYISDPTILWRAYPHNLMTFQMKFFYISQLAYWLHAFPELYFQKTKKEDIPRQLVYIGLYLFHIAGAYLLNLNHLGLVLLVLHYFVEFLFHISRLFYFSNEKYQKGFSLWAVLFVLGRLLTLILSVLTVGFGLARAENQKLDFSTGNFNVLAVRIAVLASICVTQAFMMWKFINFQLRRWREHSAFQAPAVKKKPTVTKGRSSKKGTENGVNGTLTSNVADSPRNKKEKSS
UniProt O43617, whole entry, looked up: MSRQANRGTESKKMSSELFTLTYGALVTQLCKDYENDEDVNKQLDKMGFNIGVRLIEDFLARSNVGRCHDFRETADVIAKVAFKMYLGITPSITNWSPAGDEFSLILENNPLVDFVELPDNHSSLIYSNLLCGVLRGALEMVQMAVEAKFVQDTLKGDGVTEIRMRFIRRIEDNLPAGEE
UniProt Q96DX7: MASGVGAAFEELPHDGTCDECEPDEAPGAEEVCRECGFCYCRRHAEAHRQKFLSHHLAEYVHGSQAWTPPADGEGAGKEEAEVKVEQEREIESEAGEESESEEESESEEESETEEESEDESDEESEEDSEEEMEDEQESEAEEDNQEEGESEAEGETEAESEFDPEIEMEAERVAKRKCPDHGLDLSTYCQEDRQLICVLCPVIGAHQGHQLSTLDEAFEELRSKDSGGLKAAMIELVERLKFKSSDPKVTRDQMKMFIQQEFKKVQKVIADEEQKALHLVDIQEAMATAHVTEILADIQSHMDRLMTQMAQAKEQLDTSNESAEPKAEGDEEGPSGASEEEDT
UniProt Q12931: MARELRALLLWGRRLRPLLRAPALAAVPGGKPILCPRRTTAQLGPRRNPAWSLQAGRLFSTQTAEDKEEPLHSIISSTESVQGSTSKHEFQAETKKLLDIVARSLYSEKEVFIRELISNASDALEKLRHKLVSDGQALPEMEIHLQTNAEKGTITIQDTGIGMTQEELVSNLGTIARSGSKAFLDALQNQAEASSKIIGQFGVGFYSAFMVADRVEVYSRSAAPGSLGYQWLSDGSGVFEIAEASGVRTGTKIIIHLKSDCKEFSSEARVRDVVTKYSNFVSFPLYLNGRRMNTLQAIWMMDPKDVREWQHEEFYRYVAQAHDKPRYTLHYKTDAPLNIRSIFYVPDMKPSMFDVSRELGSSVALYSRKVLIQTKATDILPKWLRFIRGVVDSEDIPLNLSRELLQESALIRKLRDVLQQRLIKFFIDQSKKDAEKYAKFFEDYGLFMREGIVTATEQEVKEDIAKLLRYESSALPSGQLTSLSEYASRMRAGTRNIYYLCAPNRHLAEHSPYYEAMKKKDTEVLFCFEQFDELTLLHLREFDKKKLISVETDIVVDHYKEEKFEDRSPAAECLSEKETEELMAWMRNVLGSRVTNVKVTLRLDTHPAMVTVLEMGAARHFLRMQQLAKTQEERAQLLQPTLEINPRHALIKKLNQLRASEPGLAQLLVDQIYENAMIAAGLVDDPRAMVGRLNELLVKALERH
UniProt Q99598: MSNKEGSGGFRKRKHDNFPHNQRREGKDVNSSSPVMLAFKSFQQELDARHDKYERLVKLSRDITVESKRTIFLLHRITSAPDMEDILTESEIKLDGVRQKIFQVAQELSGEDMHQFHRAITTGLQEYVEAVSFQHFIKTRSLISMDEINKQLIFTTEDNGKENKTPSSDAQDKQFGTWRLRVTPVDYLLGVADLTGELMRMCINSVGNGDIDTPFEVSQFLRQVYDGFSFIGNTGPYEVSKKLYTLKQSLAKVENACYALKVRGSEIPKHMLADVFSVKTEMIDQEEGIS
UniProt P36406: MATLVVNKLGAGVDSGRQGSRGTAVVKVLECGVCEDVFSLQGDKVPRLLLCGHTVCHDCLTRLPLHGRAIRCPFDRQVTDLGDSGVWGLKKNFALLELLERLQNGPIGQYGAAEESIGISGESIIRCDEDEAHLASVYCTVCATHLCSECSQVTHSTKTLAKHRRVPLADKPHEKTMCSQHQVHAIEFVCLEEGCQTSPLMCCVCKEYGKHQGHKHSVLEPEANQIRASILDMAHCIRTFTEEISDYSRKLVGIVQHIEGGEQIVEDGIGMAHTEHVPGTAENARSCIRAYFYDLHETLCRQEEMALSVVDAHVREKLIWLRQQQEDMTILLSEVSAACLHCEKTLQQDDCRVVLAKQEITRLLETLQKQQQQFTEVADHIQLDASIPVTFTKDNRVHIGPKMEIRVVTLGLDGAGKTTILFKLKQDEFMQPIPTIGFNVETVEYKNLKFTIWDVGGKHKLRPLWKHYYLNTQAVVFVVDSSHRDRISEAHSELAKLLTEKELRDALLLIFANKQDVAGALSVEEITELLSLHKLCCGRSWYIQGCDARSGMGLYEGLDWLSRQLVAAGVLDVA

[1] = compound: C/C(=N\NC(=O)C1=CC(=CC=C1)S(=O)(=O)N2CCOCC2)/C3=C(C=CC(=C3)Cl)O
In short: as §1

[2] = compound: C1=CC(=CC=C1C2=NC3=C(N2)C=C(C=C3)C(=O)N)OC4=CC=C(C=C4)Cl
In short: as §1

[3] = compound: C1=CC2=C(C=CC(=C2)/C=C\3/C(=O)NC(=NCC4=CC=CS4)S3)N=C1
In short: as §1

[4] = compound: C1=CC2=NC=CN=C2C=C1/C=C/3\C(=O)NC(=O)S3
In short: as §1

[5] = compound: C1=CC=C(C=C1)C2=NC(=C(N2)C3=CC=NC=C3)C4=CC(=C(C=C4)Cl)O
In short: as §1

[6] = compound: C1=CC=C2C(=C1)C3=NNC4=CC=CC(=C43)C2=O
In short: as §1

[7] = compound: C1CCN(C1)C(=O)NC2=CC=CC(=C2)NC3=NC=C(C(=N3)NCCC4=CN=CN4)Br
In short: as §1

[8] = compound: C1CN(CCC1(CC2=CC=C(C=C2)Cl)N)C3=NC=NC4=C3C=CN4
In short: as §1

IRAK-1-4 Inhibitor I = compound: C1COCCN1CCN2C3=CC=CC=C3N=C2NC(=O)C4=CC(=CC=C4)[N+](=O)[O-] [IRAK-1-4 Inhibitor I]
In short: as §1

Measured: log2 fold change

TRMT13 (UniProt Q9NUP7)
inactive: erlotinib 0.023 | [1] 0.032 | [2] 0.087 | [3] -0.045 | [4] -0.007 | [5] 0.045 | [6] -0.04 | [7] -0.018 | [8] -0.044 | IRAK-1-4 Inhibitor I 0.014

TTLL12 (UniProt V9GY16)
inactive: erlotinib 0.144 | [1] 0.13 | [2] -0.193 | [3] -0.05 | [4] 0.074 | [5] -0.061 | [6] -0.072 | [7] -0.167 | [8] 0.128 | IRAK-1-4 Inhibitor I 0.229

TRAF2 isoform 2 (UniProt Q12933)
inactive: erlotinib 0.026 | [1] -0.002 | [2] 0.008 | [3] 0.013 | [4] -0.016 | [5] -0.01 | [6] -0.015 | [7] -0.008 | [8] 0.029 | IRAK-1-4 Inhibitor I 0.033

TSC22D2 (UniProt O75157)
inactive: erlotinib -0.028 | [1] 0.016 | [2] 0.043 | [3] -0.018 | [4] -0.01 | [5] -0.011 | [6] 0.017 | [7] -0.027 | [8] 0.031 | IRAK-1-4 Inhibitor I 0.005

TRMT1L (UniProt Q7Z2T5)
inactive: erlotinib 0.019 | [1] -0.034 | [2] 0.036 | [3] 0.016 | [4] -0.031 | [5] -0.005 | [6] -0.015 | [7] -0.024 | [8] 0.002 | IRAK-1-4 Inhibitor I 0.002

Looked up one by one from above, 2 records:
TRMT1L (UniProt Q7Z2T5)
inactive: erlotinib 0.019 | [1] -0.034 | [2] 0.036 | [3] 0.016 | [4] -0.031 | [5] -0.005 | [6] -0.015 | [7] -0.024 | [8] 0.002 | IRAK-1-4 Inhibitor I 0.002

TSC22D2 (UniProt O75157)
inactive: erlotinib -0.028 | [1] 0.016 | [2] 0.043 | [3] -0.018 | [4] -0.01 | [5] -0.011 | [6] 0.017 | [7] -0.027 | [8] 0.031 | IRAK-1-4 Inhibitor I 0.005

Going on with the list.

TRAPPC12 (UniProt Q8WVT3)
inactive: erlotinib -0.049 | [1] -0.01 | [2] -0.048 | [3] -0.047 | [4] -0.018 | [5] -0.005 | [6] -0.061 | [7] -0.003 | [8] -0.005 | IRAK-1-4 Inhibitor I 0.027

TRNAU1AP (UniProt Q9NX07)
inactive: erlotinib 0.019 | [1] 0.083 | [2] -0.037 | [3] 0.114 | [4] 0.038 | [5] -0.028 | [6] -0.31 | [7] -0.071 | [8] 0.015 | IRAK-1-4 Inhibitor I -0.005

TRAPPC6B (UniProt Q86SZ2)
inactive: erlotinib 0.003 | [1] 0.049 | [2] 0.016 | [3] -0.02 | [4] -0.004 | [5] 0.006 | [6] -0.01 | [7] -0.01 | [8] 0.019 | IRAK-1-4 Inhibitor I -0.026

TRMT2A (UniProt Q8IZ69)
inactive: erlotinib -0.042 | [1] -0.015 | [2] -0.007 | [3] 0.012 | [4] -0.012 | [5] -0.012 | [6] -0.004 | [7] -0.005 | [8] 0.002 | IRAK-1-4 Inhibitor I -0.007

TRAPPC13 isoform 4 (UniProt A5PLN9)
inactive: erlotinib -0.002 | [1] 0.018 | [2] -0.006 | [3] 0.005 | [4] -0.017 | [5] 0.032 | [6] 0.021 | [7] -0.026 | [8] 0.034 | IRAK-1-4 Inhibitor I -0.019

TRAPPC6A isoform 2 (UniProt O75865)
inactive: erlotinib 0.018 | [1] 0.095 | [2] 0.002 | [3] 0.049 | [4] -0.055 | [5] -0.016 | [6] -0.005 | [7] 0.154 | [8] 0.095 | IRAK-1-4 Inhibitor I 0.047

TRPV2 (UniProt Q9Y5S1)
inactive: erlotinib -0.005 | [1] -0.018 | [2] 0.019 | [3] 0.011 | [4] 0.016 | [5] 0.011 | [6] -0.009 | [7] 0.011 | [8] 0 | IRAK-1-4 Inhibitor I -0.022

TRIM56 (UniProt Q9BRZ2)
inactive: erlotinib 0.053 | [1] -0.021 | [2] 0.021 | [3] -0.049 | [4] 0.141 | [5] -0.013 | [6] 0.033 | [7] 0.039 | [8] 0.003 | IRAK-1-4 Inhibitor I 0.062

TSFM (UniProt P43897)
inactive: erlotinib -0.013 | [1] 0.009 | [2] -0.035 | [3] -0.003 | [4] -0.002 | [5] 0.017 | [6] -0.063 | [7] 0.024 | [8] 0.034 | IRAK-1-4 Inhibitor I -0.024

TRIP10 (UniProt Q15642)
inactive: erlotinib -0.02 | [1] 0.028 | [2] -0.029 | [3] 0.002 | [4] -0.028 | [5] 0.021 | [6] -0.055 | [7] 0.044 | [8] -0.028 | IRAK-1-4 Inhibitor I -0.04

TTC9C (UniProt Q8N5M4)
inactive: erlotinib 0.017 | [1] -0.036 | [2] 0.009 | [3] 0.028 | [4] 0.01 | [5] 0.005 | [6] -0.017 | [7] 0 | [8] 0.012 | IRAK-1-4 Inhibitor I -0.01

TTC4 (UniProt O95801)
inactive: erlotinib 0.01 | [1] 0.013 | [2] 0.001 | [3] 0.003 | [4] 0.005 | [5] 0.007 | [6] -0.038 | [7] -0.029 | [8] 0.025 | IRAK-1-4 Inhibitor I -0.008

TRMU (UniProt O75648)
inactive: erlotinib -0.024 | [1] -0.115 | [2] -0.043 | [3] 0.067 | [4] -0.112 | [5] 0.009 | [6] -0.036 | [7] 0.017 | [8] -0.057 | IRAK-1-4 Inhibitor I -0.039

TRAPPC4 (UniProt Q9Y296)
inactive: erlotinib -0.004 | [1] -0.09 | [2] 0.022 | [3] 0.026 | [4] -0.026 | [5] -0.014 | [6] -0.055 | [7] -0.008 | [8] 0.04 | IRAK-1-4 Inhibitor I -0.02

TRAPPC2L (UniProt Q9UL33)
inactive: erlotinib -0.013 | [1] 0.036 | [2] -0.018 | [3] -0.025 | [4] -0.019 | [5] 0.021 | [6] -0.008 | [7] -0.022 | [8] 0.026 | IRAK-1-4 Inhibitor I 0.002

TTL (UniProt Q8NG68)
inactive: erlotinib 0.056 | [1] 0.01 | [2] 0 | [3] 0.019 | [4] -0.001 | [5] -0.027 | [6] 0.097 | [7] 0.006 | [8] -0.074 | IRAK-1-4 Inhibitor I 0.019

TRAM1 (UniProt Q15629)
inactive: erlotinib -0.029 | [1] -0.065 | [2] -0.271 | [3] -0.012 | [4] 0.102 | [5] -0.039 | [6] -0.095 | [7] 0.002 | [8] 0.007 | IRAK-1-4 Inhibitor I 0.012

TRAPPC3 (UniProt O43617)
inactive: erlotinib -0.046 | [1] -0.033 | [2] -0.04 | [3] 0.039 | [4] -0.003 | [5] -0.007 | [6] 0.021 | [7] 0.009 | [8] -0.014 | IRAK-1-4 Inhibitor I -0.032

TRIM44 (UniProt Q96DX7)
inactive: erlotinib -0.066 | [1] 0.067 | [2] -0.016 | [3] -0.037 | [4] 0.057 | [5] -0.013 | [6] -0.038 | [7] 0.053 | [8] 0.072 | IRAK-1-4 Inhibitor I 0.043

TSC2 isoform 4 (UniProt P49815)
inactive: erlotinib 0.089 | [1] 0.062 | [2] 0.045 | [3] -0.048 | [4] -0.011 | [5] 0.006 | [6] -0.08 | [7] 0.012 | [8] 0.018 | IRAK-1-4 Inhibitor I 0.001

TRAP1 (UniProt Q12931)
inactive: erlotinib -0.013 | [1] 0.007 | [2] -0.001 | [3] -0.041 | [4] 0.003 | [5] -0.005 | [6] 0.005 | [7] 0.009 | [8] -0.008 | IRAK-1-4 Inhibitor I -0.021

TSEN2 (UniProt Q8NCE0)
inactive: erlotinib 0.064 | [1] 0.054 | [2] 0.069 | [3] -0.07 | [4] -0.001 | [5] -0.026 | [6] 0.004 | [7] -0.037 | [8] -0.021 | IRAK-1-4 Inhibitor I 0

TSNAX (UniProt Q99598)
inactive: erlotinib -0.013 | [1] -0.015 | [2] 0.023 | [3] 0.003 | [4] -0.012 | [5] -0.004 | [6] 0.034 | [7] -0.005 | [8] 0.01 | IRAK-1-4 Inhibitor I 0.009

TRIM23 (UniProt P36406)
inactive: erlotinib -0.044 | [1] -0.022 | [2] 0.037 | [3] 0.014 | [4] 0.034 | [5] 0.493 | [6] -0.011 | [7] -0.017 | [8] 0.105 | IRAK-1-4 Inhibitor I 0.183

TRIM33 (UniProt H0Y612)
inactive: erlotinib -0.006 | [1] -0.002 | [2] 0.05 | [3] -0.126 | [4] -0.071 | [5] -0.01 | [6] -0.009 | [7] -0.065 | [8] -0.023 | IRAK-1-4 Inhibitor I 0.176

From the supplement of paper PMC10849652
